The list shows a part of the results.
Tested on: T1, CTL2-GFP (C. trachomatis L2/434/Bu, GFP-expressing)
T1 construct: L2/434/Bu, GFP-expressing
Design: species or system HeLa; Intracellular C. trachomatis growth in HeLa cells, bulk GFP fluorescence relative to DMSO
Conditions: bulk GFP, single well; 28.5 h, 10 µM; inhibitor

Compound	% of control remaining [%]
Cc1nn(-c2ccccc2)c2[nH]c(=O)c(CNC(C)(C)C)cc12 [CBK282921]	88.2377
COc1ccc(CNCCN2CCOCC2)c(OC)c1 [CBK278180C]	152.231
NC(=O)c1ccc(SCC(=O)O)c([N+](=O)[O-])c1 [CBK034310]	100
CCc1noc(C)c1C(=O)NCCN1CCCCC1C (centres unmarked) [CBK282219]	121.453
O=C(O)C1=CC(c2ccc(O)cc2)n2ncnc2N1 (centres unmarked) [CBK286545]	106.342
O=C(NCCC(c1ccccc1)c1ccco1)C1CCCN1 (centres unmarked) [CBK282499]	128.449
O=C(COc1ccc(N2CC(C(=O)O)CC2=O)cc1)Nc1cccc(C(F)(F)F)c1 (centres unmarked) [CBK268096]	145.797
C/C(CC(=O)Nc1ccccc1C(N)=O)=N\NC(=O)c1ccoc1C [CBK262957]	119.187
Cc1oc(NC(=O)CN2CCN(c3cccc(Cl)c3)CC2)c(C#N)c1C [CBK305906]	122.56
O=C(Cn1nnc2ccccc21)c1ccc2c(c1)CCN2S(=O)(=O)c1ccccc1 [CBK286464]	87.9861
Cc1cc(-c2cc(C)[nH]n2)[nH]n1 [CBK262079]	103.826
CCN1/C(=C/C(=C/c2sc3ccccc3[n+]2CCCS(=O)(=O)[O-])OC)Sc2ccccc21 [CBK278203]	100
C=CCn1c(N2CCC(C(=O)NC3CC3)CC2)nc2ccccc21 [CBK283924]	127.809
Cc1csc(C(Cc2cccs2)NC(=O)C2CCC(=O)N2)n1 (centres unmarked) [CBK285056]	114.337
CCOC(=O)CN(Cc1ccccc1)Cc1cccc(OC)c1 [CBK126459]	73.939
O=C1CN(C(=O)c2cccc(Cl)c2)c2ccccc2N1 [CBK017844]	93.9217
Nn1c(SCC(=O)Nc2ccc3c(c2)oc2ccccc23)nnc1-c1ccc(Cl)cc1Cl [CBK265090]	100
CC1CC(C)CN(C(=O)c2ccccc2NC(=O)C2CC(=O)Nc3ccccc32)C1 (centres unmarked) [CBK297760]	170.452
CN1CCN(Cc2nc3c([nH]2)c(=O)n(C)c(=O)n3C)CC1 [CBK269578]	63.0296
CN1CCN(CCCOc2ccccc2OCc2ccccc2)CC1 [CBK269630C]	139.364
CCS(=O)(=O)N1CCC(c2onc3c2CCCCC3)CC1 [CBK284497]	93.9154
O=C(CCC(=O)c1ccc(Cl)cc1)OCC(=O)c1cccc(I)c1 [CBK264760]	119.529
CCCSc1nnc(-c2ccccc2NC(=O)CC)c(O)n1 [CBK265081]	120.431
CCc1nnc(NS(=O)(=O)c2ccc(NC(=O)c3ccc(Cl)cc3Cl)cc2)s1 [CBK045493]	97.6974
CN1CCN(CCCCOc2ccc(Cc3ccccc3)cc2)CC1 [CBK269692C]	135.16
O=C(CSc1nnc(-c2ccncc2)n1-c1ccccc1)c1ccc(Br)cc1 [CBK266758]	141.178

Individual results from the entries so far.
`O=C1CN(C(=O)c2cccc(Cl)c2)c2ccccc2N1` [CBK017844] – % of control remaining [%]: 93.9217
`O=C(NCCC(c1ccccc1)c1ccco1)C1CCCN1` (centres unmarked) [CBK282499] – % of control remaining [%]: 128.449
`O=C(CCC(=O)c1ccc(Cl)cc1)OCC(=O)c1cccc(I)c1` [CBK264760] – % of control remaining [%]: 119.529
`Nn1c(SCC(=O)Nc2ccc3c(c2)oc2ccccc23)nnc1-c1ccc(Cl)cc1Cl` [CBK265090] – % of control remaining [%]: 100

(cont.)

Compound	% of control remaining [%]
C#CCNC(=O)[C@@H]1Cc2cn(Cc3cc(C)on3)c3cccc(c23)[C@H](CC(C)C)N1 [CBK289426]	116.51
Cn1ncc2c(C(=O)O)cc(-c3ccccc3)nc21 [CBK288024]	108.497
COc1ccc(S(=O)(=O)N(C)CC(=O)Nc2ccc(Br)cc2F)cc1Cl [CBK267916]	128.501
O=C(CCS(=O)(=O)c1ccc(Br)cc1)OCC(=O)c1ccccc1 [CBK021886]	100.659
Cc1cc(OC(C)C(=O)NCc2ccccn2)ccc1Cl (centres unmarked) [CBK269617]	118.1
C=CCn1c2cc(C)sc2c2cnn(CCC(C)=O)c(=O)c21 [CBK282868]	101.431
O=C(O)C(Cc1ccccc1)N1C(=O)/C(=C/c2ccc([N+](=O)[O-])cc2)SC1=S (centres unmarked) [CBK263108]	100
CCc1nc2ccc(C(=O)NC3=NN(c4ccccc4)C(=O)C3)cn2c1N(C)Cc1cccs1 [CBK145557]	104.484
Cc1ccc2c(c1)-c1c(ssc1=S)C(C)(C)N2C(=O)COc1nc2ccccc2s1 [CBK262682]	106.354
Cc1n[nH]c(NNC(=O)COc2ccc(Cl)cc2)c1[N+](=O)[O-] [CBK261478]	109.799
O=C(Nc1ccc(S(=O)(=O)Nc2ncccn2)cc1)c1ccc(Cl)c([N+](=O)[O-])c1 [CBK263739]	109.759
CC(=O)Nc1ccc(-c2nc3ncccc3o2)cc1C [CBK288132]	118.125
CC(C)NC(=O)[C@H]1CN(C(=O)c2cc[nH]n2)C[C@@H]1c1ccnc(N2CCCC2)n1 [CBK285526]	121.75
COc1ccc(S(=O)(=O)N(C)CC(=O)Nc2ccccc2C(F)(F)F)cc1OC [CBK266159]	116.834
COc1ccccc1NC(=O)c1[nH]nc(O)c1Cc1c(Cl)cccc1Cl [CBK107846]	112.783
O=C(NCc1cccc(C(F)(F)F)c1)N1CCN(c2cc(C(F)(F)F)ccn2)CC1 [CBK156435]	150.967
O=C(NCc1cccnc1)C1CCC(Cn2c(=S)[nH]c3ccccc3c2=O)CC1 (centres unmarked) [CBK266678]	118.496
O=C(CSc1nnc(Cc2ccccc2)o1)Nc1c(Cl)cc(Cl)cc1Cl [CBK266119]	134.003
CC1=CCC(C(=O)O)C(C(=O)Nc2ccccc2NC(=O)c2ccc(C(F)(F)F)cc2)C1 (centres unmarked) [CBK265794]	107.072
COCCOc1ccc(-c2noc([C@@H]3CCCN3)n2)cn1 [CBK288883]	140.915
Cc1ncccc1OC1(C(=O)NCc2cn3c(n2)SCC3)CCNCC1 [CBK307649]	133.484
COc1ccc(-c2csc(N3CCN(C)CC3)n2)cc1F [CBK305910]	95.8404
CSc1nc(Cl)c(-c2ccccc2)c(N(C)C)n1 [CBK023169]	108.135
O=CN1CCc2c([nH]c3ccccc23)C12CCN(CCCN1C(=O)C3CCCCC3C1=O)C2 (centres unmarked) [CBK039592]	89.569
CN(Cc1ccc2ncccc2c1)C(=O)C1CN(S(=O)(=O)c2ccc(F)cc2)C1 [CBK285943]	121.271
CC(=O)c1cc(C(=O)Nc2cnn(Cc3ccc(F)cc3)c2)cs1 [CBK282528]	106.264

Compound	% of control remaining [%]
O=C1CCC(=O)N1CCn1c(=O)n(S(=O)(=O)c2ccc(-c3ccccc3)cc2)c2ccccc21 [CBK106494]	115.668
Cc1cc(C(=O)NC2CCCOC2)c2cccc(Cl)c2n1 (centres unmarked) [CBK282459]	122.32
COc1ccc(C(CC(=O)c2ccc(C)cc2)Nc2ccc([N+](=O)[O-])cc2)cc1 (centres unmarked) [CBK268187]	107.183
CCOc1ccc(S(=O)(=O)N(C)CC(=O)N2CCN(C)CC2)cc1 [CBK269953]	120.619
CNS(=O)(=O)c1ccc(NC(=O)c2cc(-c3cccnc3)nc3ccc(Br)cc23)cc1 [CBK267776]	139.026
CC(=O)Nc1ccc(C(=O)N/C(=C/c2ccccc2)C(=O)O)cc1 [CBK265353]	123.78
CCNC(=O)Nc1ncc(-c2ccc(OC(F)(F)F)cc2)c2cccnc12 [CBK070690]	110.114
O=C(O)C1CCC1C(=O)N1CCN(c2ccc(C(F)(F)F)cn2)CC1 (centres unmarked) [CBK057147]	165.651
Cc1cc(NS(=O)(=O)c2ccc(NC(=S)NC(=O)C(C)(C)C)cc2)no1 [CBK268877]	34.8432
O=S(=O)(c1ccc(F)cc1)N1CCN(c2ncnc3scc(-c4ccccc4)c23)CC1 [CBK264864]	100
CCNc1cccnc1N(CC)C1CCN(C(=O)c2cc3cc4c(cc3[nH]2)OCO4)CC1 [CBK016815]	118.169
Cc1c(N)c(=O)n2nc(C(F)(F)F)nc2n1C [CBK020172]	128.36
Cc1cc(-c2ccccc2)nn1C(CC(=O)O)C(=O)O (centres unmarked) [CBK263480]	98.4921
O=C(O)CC1(CC(=O)N2CCN(C(c3ccccc3)c3ccccc3)CC2)CCCC1 [CBK086174]	121.702
CN(C)CCN(Cc1ccncc1)Cc1ccc(F)cc1F [CBK283094]	108.151
Cc1nc(-c2ccc(Cl)cc2)sc1C(=O)N1CCCC(C(=O)O)C1 (centres unmarked) [CBK304407]	135.604
CCOC(=O)c1cccc(NS(=O)(=O)c2ccc(Br)cc2)c1 [CBK034346]	93.1885
O=C(Nc1ccccc1N1CCNCC1)c1ccoc1 [CBK029442T]	156.646
COc1ccc(C(NC(=O)N2CCN(C(=O)OCc3ccccc3)CC2)c2ccccc2C)cn1 (centres unmarked) [CBK081469]	114.413
CNC(=O)C1(Cc2ccc(-c3ccccc3)cc2)CCN(C(=O)c2ccccc2OC)CC1 [CBK285767]	139.894
Cc1cc(N2C(=O)c3ccc(C(=O)O)cc3C2=O)ccc1NC(=O)c1cccs1 [CBK265415]	100
Cc1cc(NC(=O)CC2CCCCC2)nc2c1c(=O)oc1ccccc12 [CBK291151]	124.631
Cc1sc2nc(SCc3cc(O)[nH]n3)nc(N)c2c1C [CBK264585]	121.84
N=c1n(CC(=O)O)c2ccccc2n1Cc1ccc(Cl)cc1 [CBK262897B]	133.09
Cc1cnc(C)c(N2CCN(C(=O)NCCSc3nncn3C)CC2)n1 [CBK306531]	86.6944
